The source of these data is paper PMC10916433 (2023).

Sequences of proteins named here, by UniProt entry; tags and fusion partners are left off. A change or cut given only in a name is not applied to a line headed by its entry. A line that says so, or that is headed by a name, gives the form on record, which may keep a tag or linker. Residues count along the entry.
Flag‐tagged wild‐type RAGE (Q62151, residues 23-402): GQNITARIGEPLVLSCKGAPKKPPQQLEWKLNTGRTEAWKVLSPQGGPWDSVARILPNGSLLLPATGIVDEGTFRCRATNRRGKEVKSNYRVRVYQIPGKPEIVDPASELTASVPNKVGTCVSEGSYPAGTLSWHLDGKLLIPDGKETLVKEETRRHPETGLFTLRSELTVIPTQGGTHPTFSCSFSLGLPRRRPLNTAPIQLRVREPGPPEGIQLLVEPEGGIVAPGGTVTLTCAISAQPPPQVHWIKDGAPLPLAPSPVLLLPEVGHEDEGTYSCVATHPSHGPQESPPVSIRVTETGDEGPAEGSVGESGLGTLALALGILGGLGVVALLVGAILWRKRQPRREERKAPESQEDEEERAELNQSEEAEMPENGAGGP
Flag‐tagged mutated RAGE (AAs 362–367) (Q62151, form named): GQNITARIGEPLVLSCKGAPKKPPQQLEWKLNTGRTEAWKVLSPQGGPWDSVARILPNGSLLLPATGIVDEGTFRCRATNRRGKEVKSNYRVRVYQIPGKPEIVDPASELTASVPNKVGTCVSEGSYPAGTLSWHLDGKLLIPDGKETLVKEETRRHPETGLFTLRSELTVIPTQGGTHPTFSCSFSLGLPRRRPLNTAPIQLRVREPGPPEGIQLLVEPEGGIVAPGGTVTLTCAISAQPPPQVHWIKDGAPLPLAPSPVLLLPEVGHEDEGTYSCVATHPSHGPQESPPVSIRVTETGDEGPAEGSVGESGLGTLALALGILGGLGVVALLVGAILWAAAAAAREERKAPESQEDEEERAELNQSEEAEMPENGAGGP

Results are given in words; binding and its absence hold for the method and conditions named. In cells and extracts the contact can be indirect. Some results given as binding are weak or reduced against the parent protein; the word gives no strength. Tags and fused reporters may be left off the sequences shown.

The experiment addresses T1, His‐tagged RIPK1 (UniProt Q60855).
T1 sequence: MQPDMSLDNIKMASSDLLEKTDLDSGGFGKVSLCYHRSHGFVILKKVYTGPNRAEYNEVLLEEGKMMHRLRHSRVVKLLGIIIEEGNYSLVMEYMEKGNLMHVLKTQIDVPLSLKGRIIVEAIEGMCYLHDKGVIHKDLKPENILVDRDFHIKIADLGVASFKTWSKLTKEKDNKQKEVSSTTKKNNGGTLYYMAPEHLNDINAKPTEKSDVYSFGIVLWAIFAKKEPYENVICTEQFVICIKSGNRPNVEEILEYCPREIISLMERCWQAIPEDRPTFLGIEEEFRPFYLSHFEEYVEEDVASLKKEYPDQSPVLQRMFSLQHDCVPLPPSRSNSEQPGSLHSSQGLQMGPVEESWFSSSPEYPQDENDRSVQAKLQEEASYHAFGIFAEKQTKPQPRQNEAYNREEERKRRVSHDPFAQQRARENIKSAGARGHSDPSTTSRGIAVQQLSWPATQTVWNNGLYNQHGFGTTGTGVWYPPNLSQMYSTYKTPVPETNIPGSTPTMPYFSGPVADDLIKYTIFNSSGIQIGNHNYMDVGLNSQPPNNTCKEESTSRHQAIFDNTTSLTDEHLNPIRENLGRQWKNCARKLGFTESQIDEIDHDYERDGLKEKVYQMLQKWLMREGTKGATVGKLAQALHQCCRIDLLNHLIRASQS
The experiment in a line: co-IP; Flag‐RAGE‐Wt/Mut and His‐RIPK1 co‐transfected into BV2 microglia; precipitated with anti‐Flag and anti‐His antibodies, respectively; Western blotting. (In general: A western blot detects proteins with antibodies after separation by electrophoresis.)

On to “Flag‐tagged mutated RAGE (AAs 362–367) (from UniProt Q62151 23-402) (receptor)”, for which the binding entry is listed as “no binding”.
On to “Flag‐tagged wild‐type RAGE (from UniProt Q62151 23-402) (receptor)”, for which the binding result is “binds”.
